Taken from: PubChem BioAssay AID1224831 (NIAID, 2016)
Shown is an unselected part of about 3,500 reagents tested. 731 of all reagents (21%) count as active. 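Active means either lowered or raised reporter signal; the gene-median score did not drive the per-siRNA calls.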 A number with no mark means an inactive call. The numbers tell different reagents against one gene apart.

Aim: 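Confirming genome-wide hits on LPS-triggered TNF-alpha induction with independent siRNA sequences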 (follow-up of hits)
System: human THP-1 B5 monocytic leukaemia cells carrying a TNF promoter luciferase reporter, made macrophage-like with PMA
Reagents: single siRNA against human genes, 50 nM
Timing: about 68 h of knock-down, then 4 h LPS
Challenge: LPS (Salmonella minnesota, TLR-grade) at 10 ng/ml for 4 h; PMA 5 ng/ml present during knock-down
Read-out: 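Firefly to renilla luciferase ratio of a TNF promoter reporter after 4 h LPS, scaled to plate median, turned into robust z-score, averaged over replicates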
Scale: TNF reporter z-score: higher = stronger LPS-induced TNF reporter signal; z-score, median over gene's siRNAs: higher = stronger TNF reporter signal across the gene's siRNAs
Rule for the call: 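Active when the replicate mean z-score is about -1 or lower, or about 1.5 or higher; lowered and raised TNF reporter signal both count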
Meaning of the calls: active = changed TNF reporter (either direction); inactive = little change

With knock-down of HMGN2 (GeneID 3151) #1, the screen gave TNF reporter z-score, replicate mean 2.38 (active); z-score, median over gene's siRNAs -0.1.
Against HMGN2 (GeneID 3151) #2, the values are TNF reporter z-score, replicate mean -0.09; z-score, median over gene's siRNAs -0.1.
Against HMGN2 (GeneID 3151) #3, the entry reads TNF reporter z-score, replicate mean -0.11; z-score, median over gene's siRNAs -0.1.
Silencing of HMGN2 (GeneID 3151) #4 gave: TNF reporter z-score, replicate mean 0.26; z-score, median over gene's siRNAs -0.1.
Silencing of HMGN2 (GeneID 3151) #5 gave: TNF reporter z-score, replicate mean -0.83; z-score, median over gene's siRNAs -0.1.
For HMGN2 (GeneID 3151) #6, the values are TNF reporter z-score, replicate mean -0.12; z-score, median over gene's siRNAs -0.1.
C1QTNF6 (GeneID 114904) #1 scored TNF reporter z-score, replicate mean -0.38; z-score, median over gene's siRNAs -0.27.
C1QTNF6 (GeneID 114904) #2 scored TNF reporter z-score, replicate mean -0.16; z-score, median over gene's siRNAs -0.27.
For C1QTNF6 (GeneID 114904) #3, the entry reads TNF reporter z-score, replicate mean -1.28 (active); z-score, median over gene's siRNAs -0.27.
C1QTNF6 (GeneID 114904) #4 scored TNF reporter z-score, replicate mean -0.95; z-score, median over gene's siRNAs -0.27.
After knock-down of C1QTNF6 (GeneID 114904) #5, the record shows TNF reporter z-score, replicate mean 0.56; z-score, median over gene's siRNAs -0.27.
With knock-down of C1QTNF6 (GeneID 114904) #6 the results were TNF reporter z-score, replicate mean 0.23; z-score, median over gene's siRNAs -0.27.
For FSAF1 (GeneID 128061) #1, the entry reads TNF reporter z-score, replicate mean -1.1 (active); z-score, median over gene's siRNAs 0.37.
FSAF1 (GeneID 128061) #2 scored TNF reporter z-score, replicate mean 0.6; z-score, median over gene's siRNAs 0.37.
FSAF1 (GeneID 128061) #3 showed TNF reporter z-score, replicate mean 0.32; z-score, median over gene's siRNAs 0.37.
Silencing of FSAF1 (GeneID 128061) #4 gave: TNF reporter z-score, replicate mean 0.57; z-score, median over gene's siRNAs 0.37.
After knock-down of FSAF1 (GeneID 128061) #5, the screen gave TNF reporter z-score, replicate mean 0.34; z-score, median over gene's siRNAs 0.37.
FSAF1 (GeneID 128061) #6 gave TNF reporter z-score, replicate mean 0.4; z-score, median over gene's siRNAs 0.37.
After knock-down of MAFB (GeneID 9935) #1, the record shows TNF reporter z-score, replicate mean -0.72; z-score, median over gene's siRNAs -0.925.
Against MAFB (GeneID 9935) #2, the entry reads TNF reporter z-score, replicate mean -2.41 (active); z-score, median over gene's siRNAs -0.925.
MAFB (GeneID 9935) #3 gave TNF reporter z-score, replicate mean -0.19; z-score, median over gene's siRNAs -0.925.
With knock-down of MAFB (GeneID 9935) #4, the record shows TNF reporter z-score, replicate mean -0.7; z-score, median over gene's siRNAs -0.925.
MAFB (GeneID 9935) #5 scored TNF reporter z-score, replicate mean -1.13 (active); z-score, median over gene's siRNAs -0.925.
Silencing of MAFB (GeneID 9935) #6 gave: TNF reporter z-score, replicate mean -1.87 (active); z-score, median over gene's siRNAs -0.925.

Records above whose target name starts with M or m (6):
MAFB (GeneID 9935) #1 → TNF reporter z-score, replicate mean = -0.72; z-score, median over gene's siRNAs = -0.925
MAFB (GeneID 9935) #2 → TNF reporter z-score, replicate mean = -2.41 (active); z-score, median over gene's siRNAs = -0.925
MAFB (GeneID 9935) #3 → TNF reporter z-score, replicate mean = -0.19; z-score, median over gene's siRNAs = -0.925
MAFB (GeneID 9935) #4 → TNF reporter z-score, replicate mean = -0.7; z-score, median over gene's siRNAs = -0.925
MAFB (GeneID 9935) #5 → TNF reporter z-score, replicate mean = -1.13 (active); z-score, median over gene's siRNAs = -0.925
MAFB (GeneID 9935) #6 → TNF reporter z-score, replicate mean = -1.87 (active); z-score, median over gene's siRNAs = -0.925

Continued:
For EHMT1 (GeneID 79813) #1, the entry reads TNF reporter z-score, replicate mean -0.87; z-score, median over gene's siRNAs -0.385.
Knock-down of EHMT1 (GeneID 79813) #2 gave: TNF reporter z-score, replicate mean -2.11 (active); z-score, median over gene's siRNAs -0.385.
Knock-down of EHMT1 (GeneID 79813) #3 resulted in: TNF reporter z-score, replicate mean -0.39; z-score, median over gene's siRNAs -0.385.
After knock-down of EHMT1 (GeneID 79813) #4 the results were TNF reporter z-score, replicate mean 2.42 (active); z-score, median over gene's siRNAs -0.385.
EHMT1 (GeneID 79813) #5 gave TNF reporter z-score, replicate mean -0.38; z-score, median over gene's siRNAs -0.385.
Knock-down of EHMT1 (GeneID 79813) #6 resulted in: TNF reporter z-score, replicate mean -0.21; z-score, median over gene's siRNAs -0.385.
After knock-down of ABHD10 (GeneID 55347) #1 the results were TNF reporter z-score, replicate mean 0.27; z-score, median over gene's siRNAs 0.15.
For ABHD10 (GeneID 55347) #2 the deposit lists TNF reporter z-score, replicate mean -0.01; z-score, median over gene's siRNAs 0.15.
After knock-down of ABHD10 (GeneID 55347) #3, the screen gave TNF reporter z-score, replicate mean 1.22; z-score, median over gene's siRNAs 0.15.
Silencing of ABHD10 (GeneID 55347) #4 resulted in: TNF reporter z-score, replicate mean -0.38; z-score, median over gene's siRNAs 0.15.
Against ABHD10 (GeneID 55347) #5, the values are TNF reporter z-score, replicate mean 0.28; z-score, median over gene's siRNAs 0.15.
With knock-down of ABHD10 (GeneID 55347) #6, the screen gave TNF reporter z-score, replicate mean 0.03; z-score, median over gene's siRNAs 0.15.
Silencing of GLI2 (GeneID 2736) #1 came out at: TNF reporter z-score, replicate mean -0.44; z-score, median over gene's siRNAs 0.185.
GLI2 (GeneID 2736) #2 scored TNF reporter z-score, replicate mean 0.82; z-score, median over gene's siRNAs 0.185.
For GLI2 (GeneID 2736) #3, the entry reads TNF reporter z-score, replicate mean 1.1; z-score, median over gene's siRNAs 0.185.
GLI2 (GeneID 2736) #4 scored TNF reporter z-score, replicate mean 0.29; z-score, median over gene's siRNAs 0.185.
With knock-down of GLI2 (GeneID 2736) #5 the results were TNF reporter z-score, replicate mean 0.08; z-score, median over gene's siRNAs 0.185.
For GLI2 (GeneID 2736) #6 the deposit lists TNF reporter z-score, replicate mean -0.62; z-score, median over gene's siRNAs 0.185.
For SLC25A14 (GeneID 9016) #1, the entry reads TNF reporter z-score, replicate mean 2.34 (active); z-score, median over gene's siRNAs 0.235.
SLC25A14 (GeneID 9016) #2 scored TNF reporter z-score, replicate mean -0.99; z-score, median over gene's siRNAs 0.235.
After knock-down of SLC25A14 (GeneID 9016) #3 the results were TNF reporter z-score, replicate mean 0.38; z-score, median over gene's siRNAs 0.235.
With knock-down of SLC25A14 (GeneID 9016) #4 the results were TNF reporter z-score, replicate mean 1.03; z-score, median over gene's siRNAs 0.235.
Depletion of SLC25A14 (GeneID 9016) #5 gave: TNF reporter z-score, replicate mean 0.09; z-score, median over gene's siRNAs 0.235.
Silencing of SLC25A14 (GeneID 9016) #6 gave: TNF reporter z-score, replicate mean -0.05; z-score, median over gene's siRNAs 0.235.
LRRC8D (GeneID 55144) #1 showed TNF reporter z-score, replicate mean 1.01; z-score, median over gene's siRNAs 0.865.
LRRC8D (GeneID 55144) #2 scored TNF reporter z-score, replicate mean 0.73; z-score, median over gene's siRNAs 0.865.
For LRRC8D (GeneID 55144) #3 the deposit lists TNF reporter z-score, replicate mean 0.92; z-score, median over gene's siRNAs 0.865.
Silencing of LRRC8D (GeneID 55144) #4 gave: TNF reporter z-score, replicate mean 0.81; z-score, median over gene's siRNAs 0.865.
Against LRRC8D (GeneID 55144) #5, the values are TNF reporter z-score, replicate mean 0.37; z-score, median over gene's siRNAs 0.865.
LRRC8D (GeneID 55144) #6 gave TNF reporter z-score, replicate mean 2.59 (active); z-score, median over gene's siRNAs 0.865.
